# Results from article PMC5788634.
# The chains behind the UniProt entries cited, without tags or fusion partners. Where a name states a change or a piece, a line headed by the entry shows the natural chain unless it says otherwise.
# UniProt P08253: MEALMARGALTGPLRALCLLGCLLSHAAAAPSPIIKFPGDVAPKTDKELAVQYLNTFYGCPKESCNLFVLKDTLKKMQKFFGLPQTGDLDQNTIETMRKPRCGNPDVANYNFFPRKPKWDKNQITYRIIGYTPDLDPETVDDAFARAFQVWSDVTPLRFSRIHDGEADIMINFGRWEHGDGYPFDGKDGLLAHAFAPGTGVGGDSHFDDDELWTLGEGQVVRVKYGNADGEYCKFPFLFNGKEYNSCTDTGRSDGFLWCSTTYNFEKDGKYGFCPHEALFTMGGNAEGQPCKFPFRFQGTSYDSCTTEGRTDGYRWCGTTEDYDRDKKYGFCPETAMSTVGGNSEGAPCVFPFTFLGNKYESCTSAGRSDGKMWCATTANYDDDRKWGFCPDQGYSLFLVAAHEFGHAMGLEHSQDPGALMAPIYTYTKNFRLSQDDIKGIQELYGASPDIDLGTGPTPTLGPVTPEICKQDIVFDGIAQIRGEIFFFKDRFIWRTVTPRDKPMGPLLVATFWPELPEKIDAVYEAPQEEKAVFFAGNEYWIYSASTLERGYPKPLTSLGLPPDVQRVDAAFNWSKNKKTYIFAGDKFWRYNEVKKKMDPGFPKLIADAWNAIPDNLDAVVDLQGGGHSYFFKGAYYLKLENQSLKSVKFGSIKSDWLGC
# These are yes or no findings as the source states them, for the method shown. In cells and extracts the contact can be indirect. Binding calls can cover weak binding; strength is not graded here. Sequences can lack the tags named with a protein.
# Legend:
# [1] = molecular target: T1, Recombinant human kallistatin with a his-tag (human) (UniProt P29622); experiment: co-IP; HUVECs treated with kallistatin for 4 h; cell lysates precipitated with rabbit anti-kallistatin antibody (control rabbit immunoglobulin) and protein A beads, 4°C overnight; immunoblot; only the target purified
# T1 sequence: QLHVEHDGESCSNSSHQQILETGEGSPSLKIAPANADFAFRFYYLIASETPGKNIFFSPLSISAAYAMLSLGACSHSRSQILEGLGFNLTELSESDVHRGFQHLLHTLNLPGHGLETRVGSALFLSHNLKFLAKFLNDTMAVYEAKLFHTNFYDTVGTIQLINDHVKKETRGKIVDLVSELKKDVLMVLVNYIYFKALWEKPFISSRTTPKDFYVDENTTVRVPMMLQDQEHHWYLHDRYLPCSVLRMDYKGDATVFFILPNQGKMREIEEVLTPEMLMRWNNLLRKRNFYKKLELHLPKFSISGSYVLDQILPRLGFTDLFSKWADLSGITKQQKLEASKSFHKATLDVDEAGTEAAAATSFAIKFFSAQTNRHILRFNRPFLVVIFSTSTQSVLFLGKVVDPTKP
# [2] = molecular target: T1, Recombinant human kallistatin with a his-tag (human); experiment: pull-down; his-tagged kallistatin (3 mg) on Ni-NTA affinity beads, incubated with HUVEC membrane proteins (10 mg) for 16 h at 4°C; washed with PBS; eluted fractions on SDS-PAGE; bands identified by MALDI-TOF peptide mass fingerprinting and confirmed by immunoblot; Ni-NTA beads without kallistatin as control; only the target purified
substance,measurement,setting,value
MMP2 (from UniProt P08253) (enzyme),binding,[1],binds
same,binding,[2],binds
